Source: PubChem BioAssay AID1159578 (Peter MacCallum Cancer Centre, 2015)
Assay: 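siRNA pools altering how lymphatic endothelial cells close a scratch wound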 (primary screen). Cell system: human lymphatic endothelial cells. Knock-down reagent: siRNA pool against human genes, 40 nM. Timing: 48 h after transfection. Read-out: 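High-content imaging of dye-stained cells in a scratch assay measures filled wound area and nuclei per well; duplicate means given as ratio to mock and robust z-score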. Scale: migration robust z-score: higher = faster migration into the scratch; migration relative to mock: higher = more scratch area covered than mock; nuclei per well: higher = more cells in the well. Rule for the call: 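Migration changed when robust z exceeds 2 or falls below -2 and mean nuclei number is at least 3300; otherwise not called changed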. Meaning of the calls: active = migration changed; inactive = no migration change, or too few cells.
Shown is an unselected part of about 18,000 reagents tested. Of all reagents, about 1,030 (5.7%) got an active call. 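Inactive calls also include pools with fewer than 3300 nuclei, whose migration was not assessed.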 Raw values vary from plate to plate and are shown uncorrected. Entries without a mark were called inactive.

| migration robust z-score | migration class with cell-count check | migration relative to mock | nuclei per well, duplicate mean | Gene |
| --- | --- | --- | --- | --- |
| -0.11 | migration z between -2 and 2; enough cells | 0.86 | 5126 | ARHGAP29 |
| -0.14 | migration z between -2 and 2; enough cells | 0.84 | 5660 | GJB7 |
| 0.44 | migration z between -2 and 2; enough cells | 1 | 4570 | CRYGA |
| -0.63 | migration z between -2 and 2; enough cells | 0.72 | 5045 | GLMP |
| -1.55 | migration z between -2 and 2; enough cells | 0.5 | 5666 | MBD1 |
| -0.31 | migration z between -2 and 2; enough cells | 0.75 | 6198 | SLC19A1 |
| 0.24 | migration z between -2 and 2; enough cells | 0.94 | 5157 | CCDC149 |
| -0.15 | migration z between -2 and 2; enough cells | 0.77 | 5530 | NOTCH1 |
| 1.25 | migration z between -2 and 2; enough cells | 1.04 | 6031 | TFB2M |
| -0.44 | migration z between -2 and 2; enough cells | 0.72 | 7090 | TCF15 |
| -1.09 | migration z between -2 and 2; enough cells | 0.6 | 5291 | CRYL1 |
| 2.44 (active) | migration z above 2; enough cells | 1.27 | 4458 | GOSR2 |
| 0.12 | migration z between -2 and 2; enough cells | 0.91 | 5410 | MAB21L1 |
| -1.09 | migration z between -2 and 2; enough cells | 0.6 | 3334 | ATP5F1B |
| -0.91 | migration z between -2 and 2; enough cells | 0.63 | 6145 | PGGHG |
| 1.92 | migration z between -2 and 2; enough cells | 1.17 | 6452 | TRIM38 |
| -0.24 | migration z between -2 and 2; enough cells | 0.82 | 6085 | RMDN3 |
| 1.18 | migration z between -2 and 2; enough cells | 1.19 | 5260 | NUDT21 |
| -1.87 | migration z between -2 and 2; enough cells | 0.4 | 4398 | ZNF641 |
| -1.77 | migration z between -2 and 2; enough cells | 0.42 | 5800 | DESI1 |
| 0.33 | migration z between -2 and 2; enough cells | 0.97 | 4990 | VAC14 |
| 0.18 | migration z between -2 and 2; enough cells | 0.84 | 4856 | ITGB3 |
| -0.5 | migration z between -2 and 2; enough cells | 0.75 | 7950 | SHE |
| -0.72 | under 3300 nuclei; migration not judged | 0.7 | 3264 | RHBG |
| -0.28 | migration z between -2 and 2; enough cells | 0.82 | 7634 | ARL5B |
| -0.96 | migration z between -2 and 2; enough cells | 0.62 | 3384 | POLK |
| 1.12 | migration z between -2 and 2; enough cells | 1.02 | 5966 | ELOA |
| 0.85 | migration z between -2 and 2; enough cells | 1.1 | 5746 | OR5M9 |
| 0.54 | migration z between -2 and 2; enough cells | 1.02 | 6570 | MRPS18B |
| 0.67 | migration z between -2 and 2; enough cells | 1.05 | 4585 | FCRLA |
| -0.26 | migration z between -2 and 2; enough cells | 0.81 | 4612 | LY6S-AS1 |
| 1.18 | migration z between -2 and 2; enough cells | 1.2 | 5622 | H4C6 |
| 1.06 | migration z between -2 and 2; enough cells | 1.01 | 7158 | CYP2F1 |
| 0.51 | migration z between -2 and 2; enough cells | 1.02 | 5580 | ZNF677 |
| -1.83 | migration z between -2 and 2; enough cells | 0.41 | 5840 | ENAM |
| 0.76 | migration z between -2 and 2; enough cells | 0.95 | 6504 | SLC5A2 |
| -0.73 | migration z between -2 and 2; enough cells | 0.66 | 5706 | PUSL1 |
| -0.18 | migration z between -2 and 2; enough cells | 0.84 | 5746 | PACS1 |
| -0.18 | migration z between -2 and 2; enough cells | 0.77 | 6136 | MCCC1 |
| -0.89 | migration z between -2 and 2; enough cells | 0.66 | 4522 | NXPH2 |
| 0.47 | migration z between -2 and 2; enough cells | 0.9 | 5724 | FBXL5 |
| -0.4 | migration z between -2 and 2; enough cells | 0.78 | 5277 | OR52B2 |
| -0.1 | migration z between -2 and 2; enough cells | 0.78 | 6279 | STX1A |
| 1.04 | migration z between -2 and 2; enough cells | 1.16 | 5938 | FYTTD1 |
| 1.81 | migration z between -2 and 2; enough cells | 1.36 | 5255 | CD4 |
| -0.55 | migration z between -2 and 2; enough cells | 0.74 | 5894 | RBMY1E |
| -2.59 (active) | migration z below -2; enough cells | 0.21 | 5514 | UGT1A7 |
| -1.66 | migration z between -2 and 2; enough cells | 0.48 | 5332 | ZNF85 |
| 0.24 | migration z between -2 and 2; enough cells | 0.94 | 5242 | CRADD |
| -1.27 | migration z between -2 and 2; enough cells | 0.55 | 5814 | SLMAP |
| 1.1 | migration z between -2 and 2; enough cells | 1.17 | 5040 | MED20 |
| -2.62 | under 3300 nuclei; migration not judged | 0.3 | 1984 | TTK |
| 0.24 | migration z between -2 and 2; enough cells | 0.94 | 4174 | OPTN |
| 0.39 | migration z between -2 and 2; enough cells | 0.88 | 4710 | NDUFV2 |
| -1.08 | migration z between -2 and 2; enough cells | 0.6 | 5130 | OR2T29 |
| 1.31 | migration z between -2 and 2; enough cells | 1.23 | 5894 | SPRED3 |
| -0.18 | migration z between -2 and 2; enough cells | 0.77 | 6354 | TTL |
| -0.22 | migration z between -2 and 2; enough cells | 0.83 | 5730 | VAMP3 |
| 0.83 | migration z between -2 and 2; enough cells | 0.96 | 6157 | MSRA |
| 0.44 | migration z between -2 and 2; enough cells | 1 | 6416 | FAIM2 |
| -0.88 | migration z between -2 and 2; enough cells | 0.64 | 5942 | GEN1 |
| -0.73 | migration z between -2 and 2; enough cells | 0.66 | 4930 | PKD1L3 |
| 0.18 | migration z between -2 and 2; enough cells | 0.84 | 5046 | A4GALT |
| -0.7 | under 3300 nuclei; migration not judged | 0.67 | 2482 | CCNA2 |
| 0.26 | migration z between -2 and 2; enough cells | 0.86 | 6370 | CDC42SE2 |
| 1.25 | migration z between -2 and 2; enough cells | 1.21 | 7631 | SIL1 |
| 1.47 | migration z between -2 and 2; enough cells | 1.27 | 5078 | ZNF8 |
| 1.38 | migration z between -2 and 2; enough cells | 1.24 | 4903 | RPRD1A |
| -1.19 | migration z between -2 and 2; enough cells | 0.57 | 4376 | M1AP |
| 0.5 | migration z between -2 and 2; enough cells | 1.02 | 4976 | CYGB |
| 0.32 | migration z between -2 and 2; enough cells | 0.96 | 5800 | PHLDB1 |
| 0.32 | migration z between -2 and 2; enough cells | 0.96 | 5476 | CSPP1 |
| 1.38 | migration z between -2 and 2; enough cells | 1.07 | 6812 | E2F4 |
